Measurements: publication PMC5034239
Results are given in words; binding and its absence hold for the method and conditions named. Binding seen in cells or lysates may run through a third protein. Some binding calls cover weakened binding; strength is not graded here.

Sequences of proteins named here, by UniProt entry; tags and fusion partners are left off. A change or cut given only in a name is not applied to a line headed by its entry. Residues count along the entry.
UniProt Q13136: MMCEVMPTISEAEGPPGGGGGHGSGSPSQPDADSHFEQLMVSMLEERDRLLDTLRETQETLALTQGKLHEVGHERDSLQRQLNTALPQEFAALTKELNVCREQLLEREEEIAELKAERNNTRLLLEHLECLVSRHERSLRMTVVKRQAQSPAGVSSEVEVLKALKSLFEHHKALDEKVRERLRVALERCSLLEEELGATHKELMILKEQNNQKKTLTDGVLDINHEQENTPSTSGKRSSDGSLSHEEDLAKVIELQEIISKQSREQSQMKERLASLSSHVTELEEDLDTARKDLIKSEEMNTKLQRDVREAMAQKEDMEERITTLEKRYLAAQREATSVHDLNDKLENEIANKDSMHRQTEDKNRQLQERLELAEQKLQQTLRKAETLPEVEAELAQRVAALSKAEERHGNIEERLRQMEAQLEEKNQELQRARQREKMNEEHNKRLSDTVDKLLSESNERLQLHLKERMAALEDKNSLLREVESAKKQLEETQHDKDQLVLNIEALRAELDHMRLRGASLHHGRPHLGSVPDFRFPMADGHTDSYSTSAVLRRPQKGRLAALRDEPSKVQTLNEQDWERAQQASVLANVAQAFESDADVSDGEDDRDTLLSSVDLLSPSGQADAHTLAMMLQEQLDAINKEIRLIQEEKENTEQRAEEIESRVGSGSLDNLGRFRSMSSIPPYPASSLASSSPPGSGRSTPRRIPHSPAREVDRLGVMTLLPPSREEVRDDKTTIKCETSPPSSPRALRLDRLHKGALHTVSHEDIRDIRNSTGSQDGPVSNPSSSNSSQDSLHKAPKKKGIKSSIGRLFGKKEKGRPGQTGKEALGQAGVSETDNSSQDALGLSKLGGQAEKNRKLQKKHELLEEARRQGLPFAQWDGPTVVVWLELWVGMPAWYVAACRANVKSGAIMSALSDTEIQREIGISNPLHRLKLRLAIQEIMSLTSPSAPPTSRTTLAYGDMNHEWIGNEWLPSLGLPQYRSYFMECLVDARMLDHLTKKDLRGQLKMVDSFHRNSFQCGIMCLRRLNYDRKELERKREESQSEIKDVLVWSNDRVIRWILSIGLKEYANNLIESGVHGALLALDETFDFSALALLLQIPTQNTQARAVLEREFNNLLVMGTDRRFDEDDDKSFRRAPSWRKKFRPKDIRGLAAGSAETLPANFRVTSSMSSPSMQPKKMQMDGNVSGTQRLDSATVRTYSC
GFP-Liprin-N: residues 1-344 of Q13136

Molecular target: GFP-Liprin-N (human) (UniProt Q13136)
Experiment: co-IP; COS7 cells cotransfected with GFP-tagged and/or FLAG-tagged constructs; 300 μg of protein lysate per immunoprecipitation; antibody (anti-GFP in Fig. 1b,c) pre-adsorbed to protein A Sepharose, 3 h at 4 °C; blots with anti-FLAG and anti-GFP

binding	Substance
binds	FLAG-Liprin-1-670 (from UniProt Q13136 1-670) (domain or fragment)
binds	Liprin-1-517 (from UniProt Q13136 1-517) (domain or fragment)
binds	full length FLAG-Liprin-α1 (from UniProt Q13136 1-1202)
no binding	FLAG-Liprin-ΔN (from UniProt Q13136 335-1202) (domain or fragment)
